Measured values: article PMC11996917, “An inherited predisposition allele promotes gastric cancer via enhancing deubiquitination-mediated activation of epithelial-to-mesenchymal transition signaling”

Target: T1, GLI3 (His-tagged + probably zinc-finger fragment) (UniProt P10071)
T1 sequence (looked up, limits assumed): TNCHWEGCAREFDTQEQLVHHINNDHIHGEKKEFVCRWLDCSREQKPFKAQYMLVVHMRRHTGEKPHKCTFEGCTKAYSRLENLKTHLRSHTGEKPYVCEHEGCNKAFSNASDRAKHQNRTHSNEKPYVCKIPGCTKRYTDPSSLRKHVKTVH
Experiment: EMSA
Conditions: negligible shift, 5 mM MgCl2; EMSA: 20 mM Tris-HCl pH 7.5, 50 mM NaCl, 5 mM MgCl2, 0.2 mM EDTA, 1 mM DTT, 1 h at room temperature; 6% native PAGE; recombinant protein; protein details: His; label: biotin

“CCCCAAGCAGGGAGTGGCCCCTGAG (double strand) [rs72856331-A]”: binds more weakly.

For at least one entry, the source does not settle the construct or the ends of the probe. The comparison behind a weaker result is the experiment's own reference, which may not be listed here. Protein sequences can lack the tags named with them.
